These are yes or no findings as the source states them, for the method shown. Binding seen in cells or lysates may run through a third protein. Binding calls can cover weak binding; strength is not graded here. Where a sequence is shown, tags or fusion partners need not be part of it.
Assays:
[1] = target: MBP-GS3 (rice (variety ZH11)); test: pull-down; MBP-GS3 treated with DTT, H2O or H2O2, then incubated with equal amounts of GST-RGB1 and MBP beads; immunoblot with anti-GST and anti-MBP
[2] = target: cLUC-GS3 (rice (variety ZH11)); test: split reporter; firefly luciferase complementation imaging (LCI) in N. benthamiana leaves, 36-48 h after infiltration; for RGB1-nLUC/cLUC-GS3 co-expressed with MYC, MYC-WG1 or MYC-WG1^C46,49S

| binding [1] | binding [2] | Binder |
| --- | --- | --- |
| binds | – | GST-RGB1 (protein, UniProt Q40687 1-380) MASVAELKEKHAAATASVNSLRERLRQRRQMLLDTDVERYSRTQGRTPVSFNPTDLVCCRTLQGHSGKVYSLDWTPEKNWIVSASQDGRLIVWNALTSQKTHAIKLHCPWVMTCAFAPNGQSVACGGLDSACSIFNLNSQADRDGNIPVSRILTGHKGYVSSCQYVPDQETRLITSSGDQTCVLWDVTTGQRISIFGGEFPSGHTADVLSLSINSSNSNMFVSGSCDATVRLWDIRIASRAVRTYHGHEGDINSVKFFPDGQRFGTGSDDGTCRLFDVRTGHQLQVYSREPDRNDNELPTVTSIAFSISGRLLFAGYSNGDCYVWDTLLAEVVLNLGNLQNSHEGRISCLGLSSDGSALCTGSWDKNLKIWAFSGHRKIV |
| – | binds | RGB1-nLUC (protein, UniProt Q40687 1-380) MASVAELKEKHAAATASVNSLRERLRQRRQMLLDTDVERYSRTQGRTPVSFNPTDLVCCRTLQGHSGKVYSLDWTPEKNWIVSASQDGRLIVWNALTSQKTHAIKLHCPWVMTCAFAPNGQSVACGGLDSACSIFNLNSQADRDGNIPVSRILTGHKGYVSSCQYVPDQETRLITSSGDQTCVLWDVTTGQRISIFGGEFPSGHTADVLSLSINSSNSNMFVSGSCDATVRLWDIRIASRAVRTYHGHEGDINSVKFFPDGQRFGTGSDDGTCRLFDVRTGHQLQVYSREPDRNDNELPTVTSIAFSISGRLLFAGYSNGDCYVWDTLLAEVVLNLGNLQNSHEGRISCLGLSSDGSALCTGSWDKNLKIWAFSGHRKIV |
